Data as given in PubChem BioAssay AID1259424 (University of Nebraska Medical Center, 2018)
Shown is one part, drawn at random, of about 14,000 reagents. 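Higher correlation or smaller distance means closer resemblance to KSR1 loss; control wells, including KSR1 knockdowns, recur on many plates.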 Further read-outs or replicates are left out here. No sequences are given here. Not stated in the record: the time to read-out.

Screen: 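Rank knockdowns across the genome by resemblance to the KSR1 depletion profile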 (primary screen)
Cell system: human HCT116 colon cancer cells
Reagent: siRNA pool against human genes, 50 nM
Measured: 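Six signature mRNAs by branched-DNA multiplex assay, scaled to two housekeeping genes and non-targeting median, log2; matched to mean KSR1 knockdown profile by Pearson correlation and euclidean distance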
Scale: mean correlation with KSR1 profile: higher = expression change more like KSR1 knockdown

gene	mean correlation with KSR1 profile
TSLIG3A	-0.722
CCNG2	-0.336
FGFBP2	0.896
LY9	-0.335
RASSF7	0.214
PRRC2C	0.315
SCML2	-0.0658
CEP68	-0.0533
SUPT6H	-0.541
LTA4H	0.306
RBM48	0.849
HTR4	0.585
GPR143	0.957
LMTK1	0.788
TRIM8	0.0577
SPP2	0.56
SLC23A1	-0.575
ZNF613	-0.105

Continued (4 carried over from the part before).
gene	mean correlation with KSR1 profile
TRIM8	0.0577
SPP2	0.56
SLC23A1	-0.575
ZNF613	-0.105
POPDC3	0.397
STK35	0.686
HCFC1	0.249
CTBS	-0.125
NEB	-0.678
BTK	0.0545
ZNF235	-0.102
IL32	-0.502
ADARB2	0.00175
CAPZA2	-0.375
JAGN1	0.761
BSDC1	-0.029
AIFM2	0.142
RRH	0.471
POLD3	-0.76
PRTFDC1	-0.49
PCDHGB2	-0.148
CLEC1A	0.236
F5	-0.0731
TIMM10B	0.362
CYP46A1	-0.405
POMP	-0.23
PPT1	0.984
GATA6	0.198
EIF3K	-0.812
HACL2	-0.508
AP3M2	-0.602
TCEA2	-0.013
PNMA3	-0.017
PLK3	0.111
GP1BB	0.532
MATN4	0.345
